Measurements reported in PubChem BioAssay (NCI).
What follows is the remainder of the data, with few or none of the hits. Activity calls are given as the source filed them. Cut-off read from the data, not from the text of the source: active = growth inhibition above about 70%; inactive = the rest.

Experiments:
[1] = NCI Yeast Anticancer Drug Screen. Data for the mlh1 strain (AID 171);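 note: 0% = growth of vehicle-treated control cultures of the same strain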; details: S. cerevisiae mlh1 strain growth inhibition, hits give high values
Outline: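 Steps: expose the defined-mutant yeast strain to compound; expose a parallel culture to vehicle; measure growth; express compound effect as inhibition relative to the vehicle culture.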

[2] = NCI Yeast Anticancer Drug Screen. Data for the sgs1 strain (AID 173);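 note: 0% = growth of vehicle-only control cultures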; details: S. cerevisiae sgs1 mutant, hits give high values
Outline: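 Treat defined-mutant yeast with compound; measure growth; calculate inhibition relative to vehicle-treated cells.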

[3] = NCI Yeast Anticancer Drug Screen. Data for the rad18 strain (AID 177); details: S. cerevisiae rad18 mutant growth inhibition, hits give high values
Outline: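 A genetically defined yeast mutant impaired in DNA damage repair was treated with test compounds, then its growth was measured against cultures receiving vehicle alone.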

[4] = NCI Yeast Anticancer Drug Screen. Data for the rad52 strain (AID 147);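 note: 0% = growth of vehicle-treated control cultures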; details: S. cerevisiae rad52 mutant growth inhibition, hits give high values
Outline: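 Screen used a yeast mutant impaired in DNA repair. After compound exposure, growth was measured. Values reflect inhibition compared with vehicle-treated cells.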

[5] = NCI Yeast Anticancer Drug Screen. Data for the wt1 strain (AID 149);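 note: 0% = growth of vehicle-treated wt1 cultures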; details: S. cerevisiae wt1 strain (SPY 50644) growth inhibition, hits give high values
Outline: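 The wt1 strain was treated with compounds, and growth was compared with vehicle-treated cultures to give inhibition.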

[6] = NCI Yeast Anticancer Drug Screen. Data for the rad50EPP+ strain (AID 151);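 note: 0% = growth of vehicle-treated control cultures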; details: S. cerevisiae rad50 mutant strain, hits give high values
Outline: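 Exposing the rad50EPP+ strain to each compound, growth was compared with vehicle-only cultures to give inhibition.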

[7] = NCI Yeast Anticancer Drug Screen. Data for the mgt1 strain (AID 153); details: S. cerevisiae mgt1 mutant growth inhibition, hits give high values
Outline: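 Genetically defined yeast (mgt1) treated with compound; inhibition of growth expressed against vehicle-treated controls.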

[8] = NCI Yeast Anticancer Drug Screen. Data for the rad14 strain (AID 159);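 note: 0% = growth of vehicle-treated control cultures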; details: S. cerevisiae rad14 strain growth inhibition, hits give high values
Outline: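 Readout: yeast growth inhibition, referenced to vehicle-only cultures. Strain bears a defined alteration in DNA damage repair.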

[9] = NCI Yeast Anticancer Drug Screen. Data for the CLN2oe strain (AID 163);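 note: 0% = growth of vehicle-only control cultures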; details: S. cerevisiae CLN2oe strain, hits give high values
Outline: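 Values reflect how much compound exposure reduced yeast growth, referenced to vehicle-exposed cells. Assay organism is a strain with a defined genetic change affecting cell-cycle control.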

[10] = NCI Yeast Anticancer Drug Screen. Data for the wt2 strain (AID 169);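 note: 0% = growth of vehicle-treated yeast cultures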; details: S. cerevisiae wt2 strain growth inhibition, hits give high values
Outline: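 Values express reduction in yeast growth under compound treatment, referenced to vehicle-treated cells.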

Measured: growth inhibition

C=C(NC(=O)C(NC(=O)C(CCCCN)NC(=O)C1CSC(C)C2NC(=O)C(CC(C)C)NC(=O)C(NC(=O)C(CCC(N)=O)NC(=O)C(CC(C)C)NC(=O)C(Cc3ccccc3)NC(=O)C3CSC(C)C(NC(=O)C(NC(=O)C4CSC(C)C(NC(=O)C5CSCC(NC(=O)C(CCCCN)NC(=O)C(N)Cc6c[nH]c7ccccc67)C(=O)NC(CCC(=O)O)C(=O)NC(=C)C(=O)NC(CC(C)C)C(=O)N5)C(=O)N5CCCC5C(=O)NCC(=O)N4)C(C)C)C(=O)NCC(=O)NC(C)C(=O)NC(CC(C)C)C(=O)NC(CCC(N)=O)C(=O)N/C(=C/C)C(=O)N3)C(C)SCC(NC2=O)C(=O)NC(CC(N)=O)C(=O)N1)C(C)CC)C(=O)NC(CCCCN)C(=O)O (stereo not given)
inactive: [1]; at 1.2 µM -2% | [1]; at 3.7 µM -3% | [1]; at 11.0 µM -4% | [1]; at 33.0 µM -5% | [1]; at 100.0 µM -12% | [2]; at 1.2 µM -1% | [2]; at 3.7 µM -1% | [2]; at 11.0 µM 0% | [2]; at 33.0 µM -2% | [2]; at 100.0 µM -11% | [3]; at 1.2 µM -2% | [3]; at 3.7 µM -2% | [3]; at 11.0 µM -1% | [3]; at 33.0 µM -2% | [3]; at 100.0 µM -6%

CCCCCC(Oc1ccc(Cl)cc1Cl)C(=O)OCC (stereo not given)
inactive: [4]; at 1.2 µM 5% | [4]; at 3.7 µM 4% | [4]; at 11.0 µM -1% | [4]; at 33.0 µM 19% | [4]; at 100.0 µM 60% | [5]; at 1.2 µM -2% | [5]; at 3.7 µM -3% | [5]; at 11.0 µM -4% | [5]; at 33.0 µM -5% | [5]; at 100.0 µM 17% | [6]; at 1.2 µM 4% | [6]; at 3.7 µM 6% | [6]; at 11.0 µM 20% | [6]; at 33.0 µM 35% | [6]; at 100.0 µM 54% | [7]; at 1.2 µM -3% | [7]; at 3.7 µM -1% | [7]; at 11.0 µM -3% | [7]; at 33.0 µM 1% | [7]; at 100.0 µM 42% | [8]; at 1.2 µM 6% | [8]; at 3.7 µM 2% | [8]; at 11.0 µM -1% | [8]; at 33.0 µM 8% | [8]; at 100.0 µM 31% | [9]; at 1.2 µM -3% | [9]; at 3.7 µM -5% | [9]; at 11.0 µM -7% | [9]; at 33.0 µM 16% | [9]; at 100.0 µM 63% | [10]; at 1.2 µM 1% | [10]; at 3.7 µM -4% | [10]; at 11.0 µM -7% | [10]; at 33.0 µM -9% | [10]; at 100.0 µM 25% | [1]; at 1.2 µM 1% | [1]; at 3.7 µM 1% | [1]; at 11.0 µM -2% | [1]; at 33.0 µM 13% | [1]; at 100.0 µM 54% | [2]; at 1.2 µM -11% | [2]; at 3.7 µM 11% | [2]; at 11.0 µM -12% | [2]; at 33.0 µM 16% | [2]; at 100.0 µM 45% | [3]; at 1.2 µM 0% | [3]; at 3.7 µM 2% | [3]; at 11.0 µM -3% | [3]; at 33.0 µM 9% | [3]; at 100.0 µM 51%

CC/C(C)=N/Nc1ccc([N+](=O)[O-])cc1[N+](=O)[O-]
inactive: [4]; at 1.2 µM -1% | [4]; at 3.7 µM 2% | [4]; at 11.0 µM 4% | [4]; at 33.0 µM 0% | [4]; at 100.0 µM 5% | [5]; at 1.2 µM -1% | [5]; at 3.7 µM -3% | [5]; at 11.0 µM -2% | [5]; at 33.0 µM -3% | [5]; at 100.0 µM -3% | [6]; at 1.2 µM -1% | [6]; at 3.7 µM 4% | [6]; at 11.0 µM 14% | [6]; at 33.0 µM 10% | [6]; at 100.0 µM 37% | [7]; at 1.2 µM -5% | [7]; at 3.7 µM -1% | [7]; at 11.0 µM -3% | [7]; at 33.0 µM -2% | [7]; at 100.0 µM -3% | [8]; at 1.2 µM -2% | [8]; at 3.7 µM 1% | [8]; at 11.0 µM 5% | [8]; at 33.0 µM 0% | [8]; at 100.0 µM 3% | [9]; at 1.2 µM -2% | [9]; at 3.7 µM -3% | [9]; at 11.0 µM -1% | [9]; at 33.0 µM -3% | [9]; at 100.0 µM -10% | [10]; at 1.2 µM -2% | [10]; at 3.7 µM -11% | [10]; at 11.0 µM -3% | [10]; at 33.0 µM -4% | [10]; at 100.0 µM -6% | [1]; at 1.2 µM -4% | [1]; at 3.7 µM -1% | [1]; at 11.0 µM 0% | [1]; at 33.0 µM -3% | [1]; at 100.0 µM 7% | [2]; at 1.2 µM -16% | [2]; at 3.7 µM 5% | [2]; at 11.0 µM -3% | [2]; at 33.0 µM -8% | [2]; at 100.0 µM 13% | [3]; at 1.2 µM -6% | [3]; at 3.7 µM -3% | [3]; at 11.0 µM 1% | [3]; at 33.0 µM -4% | [3]; at 100.0 µM 4%

Cc1cc(C(c2ccccc2)(c2ccccc2)c2ccccc2)ccc1N
inactive: [4]; at 1.2 µM 1% | [4]; at 3.7 µM 3% | [4]; at 11.0 µM 6% | [4]; at 33.0 µM 15% | [4]; at 100.0 µM 19% | [6]; at 1.2 µM 5% | [6]; at 3.7 µM -2% | [6]; at 11.0 µM 1% | [6]; at 33.0 µM 6% | [6]; at 100.0 µM 7% | [7]; at 1.2 µM -1% | [7]; at 3.7 µM 0% | [7]; at 11.0 µM -2% | [7]; at 33.0 µM -2% | [7]; at 100.0 µM -18% | [8]; at 1.2 µM -1% | [8]; at 3.7 µM -3% | [8]; at 11.0 µM -1% | [8]; at 33.0 µM 4% | [8]; at 100.0 µM 3% | [9]; at 1.2 µM -2% | [9]; at 3.7 µM 1% | [9]; at 11.0 µM -2% | [9]; at 33.0 µM -6% | [9]; at 100.0 µM -4% | [10]; at 1.2 µM 1% | [10]; at 3.7 µM 0% | [10]; at 11.0 µM -7% | [10]; at 33.0 µM -2% | [10]; at 100.0 µM -3% | [1]; at 1.2 µM 2% | [1]; at 3.7 µM 2% | [1]; at 11.0 µM 2% | [1]; at 33.0 µM 4% | [1]; at 100.0 µM 8% | [2]; at 1.2 µM 0% | [2]; at 3.7 µM 0% | [2]; at 11.0 µM 1% | [2]; at 33.0 µM 3% | [2]; at 100.0 µM 7% | [3]; at 1.2 µM 2% | [3]; at 3.7 µM 1% | [3]; at 11.0 µM 0% | [3]; at 33.0 µM 6% | [3]; at 100.0 µM 18%
